From PMC12499447
Results are given in words; binding and its absence hold for the method and conditions named. In cells and extracts the contact can be indirect. Some entries that bind do so weakly or less than the wild type.

Tests used:
[1] = molecular target: T1, Apoptosis inhibitor 5 (API5), endogenous (human (endogenous in A549 and HEK293T)) (UniProt Q9BZZ5); assay: co-IP
T1 sequence: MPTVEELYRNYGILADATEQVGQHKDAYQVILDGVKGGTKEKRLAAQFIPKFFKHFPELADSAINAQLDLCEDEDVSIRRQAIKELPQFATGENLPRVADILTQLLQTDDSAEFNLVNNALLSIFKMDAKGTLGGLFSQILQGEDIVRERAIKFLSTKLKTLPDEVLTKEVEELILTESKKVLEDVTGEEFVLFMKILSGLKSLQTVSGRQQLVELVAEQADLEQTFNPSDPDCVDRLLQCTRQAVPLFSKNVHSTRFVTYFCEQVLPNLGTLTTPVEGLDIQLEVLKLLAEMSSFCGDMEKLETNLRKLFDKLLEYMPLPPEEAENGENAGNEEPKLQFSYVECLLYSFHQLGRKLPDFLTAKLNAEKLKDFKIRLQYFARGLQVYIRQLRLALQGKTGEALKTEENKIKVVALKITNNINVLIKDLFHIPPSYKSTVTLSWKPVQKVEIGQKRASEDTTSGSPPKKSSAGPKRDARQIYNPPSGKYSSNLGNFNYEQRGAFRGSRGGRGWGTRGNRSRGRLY

[2] = molecular target: p62/SQSTM1, endogenous (human (endogenous in A549)) (UniProt Q13501); assay: co-IP
[3] = molecular target: T2, Retinoic acid-inducible gene-I (RIG-I), endogenous (human (endogenous in A549)) (UniProt O95786); assay: co-IP; A549 cells infected with SeV (25 HA units) for 12 h or not; rabbit RIG-I or MDA5 antibody or rabbit IgG; endogenous proteins, immunoblot
T2 sequence: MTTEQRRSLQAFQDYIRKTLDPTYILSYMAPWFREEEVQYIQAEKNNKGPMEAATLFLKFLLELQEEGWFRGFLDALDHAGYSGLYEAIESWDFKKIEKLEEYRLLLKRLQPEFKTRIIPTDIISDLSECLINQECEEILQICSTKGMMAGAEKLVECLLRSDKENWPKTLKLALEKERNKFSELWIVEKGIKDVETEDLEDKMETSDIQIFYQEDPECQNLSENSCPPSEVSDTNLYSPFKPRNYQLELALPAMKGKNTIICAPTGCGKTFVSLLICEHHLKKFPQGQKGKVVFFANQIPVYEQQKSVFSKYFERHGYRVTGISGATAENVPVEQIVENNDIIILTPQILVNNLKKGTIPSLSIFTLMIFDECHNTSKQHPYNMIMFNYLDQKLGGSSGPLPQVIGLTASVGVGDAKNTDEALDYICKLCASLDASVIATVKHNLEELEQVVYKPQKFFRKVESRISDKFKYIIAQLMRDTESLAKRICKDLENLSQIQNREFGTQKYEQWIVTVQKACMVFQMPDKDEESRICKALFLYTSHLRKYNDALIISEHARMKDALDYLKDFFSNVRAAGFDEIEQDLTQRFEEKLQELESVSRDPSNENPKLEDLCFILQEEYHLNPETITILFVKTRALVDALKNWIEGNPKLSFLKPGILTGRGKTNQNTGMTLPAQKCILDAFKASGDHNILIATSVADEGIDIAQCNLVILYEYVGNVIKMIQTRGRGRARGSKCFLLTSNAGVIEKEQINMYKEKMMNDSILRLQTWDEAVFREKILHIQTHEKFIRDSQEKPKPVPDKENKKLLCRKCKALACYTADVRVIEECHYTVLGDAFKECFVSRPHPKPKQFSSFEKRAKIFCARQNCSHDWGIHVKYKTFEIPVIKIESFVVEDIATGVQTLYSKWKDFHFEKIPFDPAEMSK

[4] = molecular target: T3, Melanoma differentiation-associated protein-5 (MDA5), endogenous (human (endogenous in A549)) (UniProt Q9BYX4); assay: as above
T3 sequence: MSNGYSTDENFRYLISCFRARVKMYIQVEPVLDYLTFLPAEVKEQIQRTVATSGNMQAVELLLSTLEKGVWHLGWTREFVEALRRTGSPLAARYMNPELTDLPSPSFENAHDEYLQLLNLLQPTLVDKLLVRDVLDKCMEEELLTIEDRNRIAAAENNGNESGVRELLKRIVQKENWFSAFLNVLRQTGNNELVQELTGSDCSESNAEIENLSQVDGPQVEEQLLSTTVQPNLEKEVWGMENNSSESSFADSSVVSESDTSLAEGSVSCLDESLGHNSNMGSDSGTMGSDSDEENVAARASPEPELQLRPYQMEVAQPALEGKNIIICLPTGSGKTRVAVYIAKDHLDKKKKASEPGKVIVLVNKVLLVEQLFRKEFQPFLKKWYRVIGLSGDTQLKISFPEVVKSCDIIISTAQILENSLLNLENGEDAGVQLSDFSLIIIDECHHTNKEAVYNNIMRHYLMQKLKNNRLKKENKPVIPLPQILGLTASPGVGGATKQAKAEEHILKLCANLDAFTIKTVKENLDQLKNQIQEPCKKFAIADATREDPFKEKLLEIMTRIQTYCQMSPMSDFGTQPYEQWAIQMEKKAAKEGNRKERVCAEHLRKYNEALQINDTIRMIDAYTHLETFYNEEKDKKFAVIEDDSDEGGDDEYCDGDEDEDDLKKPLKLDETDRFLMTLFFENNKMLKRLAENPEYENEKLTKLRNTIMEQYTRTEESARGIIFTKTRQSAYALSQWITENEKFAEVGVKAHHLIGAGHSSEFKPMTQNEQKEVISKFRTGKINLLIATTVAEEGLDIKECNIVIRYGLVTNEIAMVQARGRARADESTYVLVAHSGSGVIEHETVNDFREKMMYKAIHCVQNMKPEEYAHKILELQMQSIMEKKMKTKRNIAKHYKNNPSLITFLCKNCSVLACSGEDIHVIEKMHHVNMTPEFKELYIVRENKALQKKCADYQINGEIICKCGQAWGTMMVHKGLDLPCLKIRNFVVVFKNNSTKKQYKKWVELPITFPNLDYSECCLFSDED

Binder	binding [1]	binding [2]	binding [3]	binding [4]
Retinoic acid-inducible gene-I (RIG-I), endogenous (protein, UniProt O95786 1-925) MTTEQRRSLQAFQDYIRKTLDPTYILSYMAPWFREEEVQYIQAEKNNKGPMEAATLFLKFLLELQEEGWFRGFLDALDHAGYSGLYEAIESWDFKKIEKLEEYRLLLKRLQPEFKTRIIPTDIISDLSECLINQECEEILQICSTKGMMAGAEKLVECLLRSDKENWPKTLKLALEKERNKFSELWIVEKGIKDVETEDLEDKMETSDIQIFYQEDPECQNLSENSCPPSEVSDTNLYSPFKPRNYQLELALPAMKGKNTIICAPTGCGKTFVSLLICEHHLKKFPQGQKGKVVFFANQIPVYEQQKSVFSKYFERHGYRVTGISGATAENVPVEQIVENNDIIILTPQILVNNLKKGTIPSLSIFTLMIFDECHNTSKQHPYNMIMFNYLDQKLGGSSGPLPQVIGLTASVGVGDAKNTDEALDYICKLCASLDASVIATVKHNLEELEQVVYKPQKFFRKVESRISDKFKYIIAQLMRDTESLAKRICKDLENLSQIQNREFGTQKYEQWIVTVQKACMVFQMPDKDEESRICKALFLYTSHLRKYNDALIISEHARMKDALDYLKDFFSNVRAAGFDEIEQDLTQRFEEKLQELESVSRDPSNENPKLEDLCFILQEEYHLNPETITILFVKTRALVDALKNWIEGNPKLSFLKPGILTGRGKTNQNTGMTLPAQKCILDAFKASGDHNILIATSVADEGIDIAQCNLVILYEYVGNVIKMIQTRGRGRARGSKCFLLTSNAGVIEKEQINMYKEKMMNDSILRLQTWDEAVFREKILHIQTHEKFIRDSQEKPKPVPDKENKKLLCRKCKALACYTADVRVIEECHYTVLGDAFKECFVSRPHPKPKQFSSFEKRAKIFCARQNCSHDWGIHVKYKTFEIPVIKIESFVVEDIATGVQTLYSKWKDFHFEKIPFDPAEMSK	binds			
Phosphorylated API5 protein (pAPI5, phospho-S464), endogenous (protein, UniProt Q9BZZ5 1-524, phosphoserine at 464) MPTVEELYRNYGILADATEQVGQHKDAYQVILDGVKGGTKEKRLAAQFIPKFFKHFPELADSAINAQLDLCEDEDVSIRRQAIKELPQFATGENLPRVADILTQLLQTDDSAEFNLVNNALLSIFKMDAKGTLGGLFSQILQGEDIVRERAIKFLSTKLKTLPDEVLTKEVEELILTESKKVLEDVTGEEFVLFMKILSGLKSLQTVSGRQQLVELVAEQADLEQTFNPSDPDCVDRLLQCTRQAVPLFSKNVHSTRFVTYFCEQVLPNLGTLTTPVEGLDIQLEVLKLLAEMSSFCGDMEKLETNLRKLFDKLLEYMPLPPEEAENGENAGNEEPKLQFSYVECLLYSFHQLGRKLPDFLTAKLNAEKLKDFKIRLQYFARGLQVYIRQLRLALQGKTGEALKTEENKIKVVALKITNNINVLIKDLFHIPPSYKSTVTLSWKPVQKVEIGQKRASEDTTSGSPPKKSSAGPKRDARQIYNPPSGKYSSNLGNFNYEQRGAFRGSRGGRGWGTRGNRSRGRLY		binds	binds	binds
